A: 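Histidine-tRNA ligase, Trypanosoma cruzi CL Brener (UniProt Q4DA54). Enzyme assay of histidyl-tRNA synthetase; the read-out is not stated. Compounds at 30 µM. Higher reads as stronger inhibition (inferred: compounds with an IC50 in retests scored well above the rest). Size under these conditions: about 69,000 compounds, about 31 of them at 50% or above in at least one test.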
B: 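Polyketide synthase Pks13, Mycobacterium tuberculosis (UniProt I6X8D2). Enzyme assay of the thioesterase domain of polyketide synthase 13; the read-out is not stated. Concentration: 30 µM. The record gives no direction; the compounds picked for IC50 retests had high values, so higher reads as stronger inhibition. Size under these conditions: about 67,000 compounds, about 300 of them at 50% or above in at least one test.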
C: 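Coenzyme A biosynthesis protein CoaBC, Mycobacterium tuberculosis (UniProt P9WNZ1). Enzyme assay of CoaBC with a phosphate dye (Biomol Green) read at 650 nm. Concentration: 30 µM. Higher reads as stronger inhibition, judged from the few compounds that gave an IC50. Most strong results did not repeat in a second test. Size under these conditions: about 67,000 compounds, about 40 of them at 50% or above in at least one test.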
D: 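Cell assay of Leishmania donovani living inside macrophages; the read-out is not stated. Tested at 30 µM. Direction is inferred from retests: higher values go with stronger inhibition. Of about 69,000 compounds tested this way, about 1,000 (1.5%) reached 50% or more in at least one test.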
E: 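Lysine-tRNA ligase, Plasmodium falciparum 3D7 (UniProt Q8IDJ8). Enzyme assay of the cytosolic lysyl-tRNA synthetase in 384-well plates, read by luminescence. Compounds at 30 µM. Direction is inferred from only a few compounds that gave an IC50; most scored high, so higher reads as stronger inhibition. About 69,000 compounds were tested under these conditions; 0.071% (about 49) showed 50% or more at least once.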
F: 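Enzyme assay of tryptophanyl-tRNA synthetase; the read-out is not stated. Target: Tryptophan-tRNA ligase, Mycobacterium tuberculosis (UniProt P9WFT3). Concentration: 10 µM. Direction is not recorded; retested compounds ran higher, which suggests that high means inhibition. Size under these conditions: about 65,000 compounds, about 64 of them at 50% or above in at least one test.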

Protein sequences, listed by entry. Tags and fused reporters are not part of them. Residues count along the entry.
UniProt Q4DA54, 1-478: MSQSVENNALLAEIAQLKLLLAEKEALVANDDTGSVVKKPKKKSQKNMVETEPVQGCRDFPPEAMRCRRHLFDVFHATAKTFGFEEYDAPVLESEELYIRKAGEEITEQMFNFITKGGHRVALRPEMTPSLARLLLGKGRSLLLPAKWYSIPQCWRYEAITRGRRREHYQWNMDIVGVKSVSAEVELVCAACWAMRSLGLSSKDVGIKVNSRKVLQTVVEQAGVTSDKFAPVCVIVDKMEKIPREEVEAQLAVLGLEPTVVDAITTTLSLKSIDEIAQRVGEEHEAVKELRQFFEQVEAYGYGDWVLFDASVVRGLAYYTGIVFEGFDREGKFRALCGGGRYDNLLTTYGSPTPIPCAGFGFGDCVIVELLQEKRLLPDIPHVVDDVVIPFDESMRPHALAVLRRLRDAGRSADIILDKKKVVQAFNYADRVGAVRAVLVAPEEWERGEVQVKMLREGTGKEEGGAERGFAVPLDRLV
UniProt I6X8D2, whole entry: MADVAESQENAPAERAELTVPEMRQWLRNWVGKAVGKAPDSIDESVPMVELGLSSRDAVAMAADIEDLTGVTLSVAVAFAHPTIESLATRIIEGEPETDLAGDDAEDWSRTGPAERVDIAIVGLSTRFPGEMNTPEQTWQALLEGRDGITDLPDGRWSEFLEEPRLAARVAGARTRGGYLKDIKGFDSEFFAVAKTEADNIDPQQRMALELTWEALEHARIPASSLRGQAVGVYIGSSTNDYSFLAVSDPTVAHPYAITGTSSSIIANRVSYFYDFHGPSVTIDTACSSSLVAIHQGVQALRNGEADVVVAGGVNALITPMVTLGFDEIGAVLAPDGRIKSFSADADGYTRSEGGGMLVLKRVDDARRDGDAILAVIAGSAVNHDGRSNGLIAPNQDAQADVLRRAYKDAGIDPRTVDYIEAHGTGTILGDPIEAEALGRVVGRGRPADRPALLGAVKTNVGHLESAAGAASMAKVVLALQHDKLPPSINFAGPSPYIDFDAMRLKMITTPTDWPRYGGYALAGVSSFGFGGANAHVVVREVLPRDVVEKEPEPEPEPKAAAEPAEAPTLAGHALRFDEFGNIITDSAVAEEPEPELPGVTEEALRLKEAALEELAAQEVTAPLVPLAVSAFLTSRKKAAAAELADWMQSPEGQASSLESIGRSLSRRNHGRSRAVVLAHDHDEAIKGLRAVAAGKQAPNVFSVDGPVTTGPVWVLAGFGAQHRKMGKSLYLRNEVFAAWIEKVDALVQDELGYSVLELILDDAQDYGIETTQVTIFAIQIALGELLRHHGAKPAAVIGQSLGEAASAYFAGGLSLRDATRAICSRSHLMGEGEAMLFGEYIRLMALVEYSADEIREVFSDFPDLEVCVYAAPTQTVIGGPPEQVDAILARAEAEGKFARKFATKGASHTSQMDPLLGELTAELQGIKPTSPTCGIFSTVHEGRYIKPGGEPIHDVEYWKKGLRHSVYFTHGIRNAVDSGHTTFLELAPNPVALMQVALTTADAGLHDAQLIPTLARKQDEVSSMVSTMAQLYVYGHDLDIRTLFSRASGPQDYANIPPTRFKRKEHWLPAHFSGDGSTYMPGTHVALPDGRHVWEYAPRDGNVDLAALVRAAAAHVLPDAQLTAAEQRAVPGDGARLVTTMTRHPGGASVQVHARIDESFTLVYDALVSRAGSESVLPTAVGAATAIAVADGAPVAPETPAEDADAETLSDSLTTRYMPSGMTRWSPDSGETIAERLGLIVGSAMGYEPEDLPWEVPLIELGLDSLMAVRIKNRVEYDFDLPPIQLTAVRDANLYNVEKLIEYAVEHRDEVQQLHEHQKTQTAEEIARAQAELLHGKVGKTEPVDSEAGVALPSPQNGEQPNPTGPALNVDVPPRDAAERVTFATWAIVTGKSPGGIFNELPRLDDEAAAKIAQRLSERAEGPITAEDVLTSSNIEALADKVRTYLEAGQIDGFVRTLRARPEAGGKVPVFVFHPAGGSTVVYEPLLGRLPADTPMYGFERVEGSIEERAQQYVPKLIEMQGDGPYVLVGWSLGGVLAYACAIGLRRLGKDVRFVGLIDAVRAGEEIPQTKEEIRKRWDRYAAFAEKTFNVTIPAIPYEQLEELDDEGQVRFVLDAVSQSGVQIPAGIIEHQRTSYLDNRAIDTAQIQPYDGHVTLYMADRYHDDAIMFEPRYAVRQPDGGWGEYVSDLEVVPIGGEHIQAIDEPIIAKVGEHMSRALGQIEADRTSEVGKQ
UniProt P9WNZ1, whole entry: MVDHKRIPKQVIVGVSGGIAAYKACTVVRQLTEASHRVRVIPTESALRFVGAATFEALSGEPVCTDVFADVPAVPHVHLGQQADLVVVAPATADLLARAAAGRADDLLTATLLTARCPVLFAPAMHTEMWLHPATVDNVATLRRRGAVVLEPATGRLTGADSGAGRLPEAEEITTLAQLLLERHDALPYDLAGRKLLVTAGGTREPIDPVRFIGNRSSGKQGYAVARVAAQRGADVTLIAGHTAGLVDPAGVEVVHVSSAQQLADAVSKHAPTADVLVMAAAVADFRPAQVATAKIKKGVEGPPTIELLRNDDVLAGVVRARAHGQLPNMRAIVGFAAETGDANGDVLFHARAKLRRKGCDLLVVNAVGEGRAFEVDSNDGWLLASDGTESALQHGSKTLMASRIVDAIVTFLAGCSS
UniProt Q8IDJ8, 1-583: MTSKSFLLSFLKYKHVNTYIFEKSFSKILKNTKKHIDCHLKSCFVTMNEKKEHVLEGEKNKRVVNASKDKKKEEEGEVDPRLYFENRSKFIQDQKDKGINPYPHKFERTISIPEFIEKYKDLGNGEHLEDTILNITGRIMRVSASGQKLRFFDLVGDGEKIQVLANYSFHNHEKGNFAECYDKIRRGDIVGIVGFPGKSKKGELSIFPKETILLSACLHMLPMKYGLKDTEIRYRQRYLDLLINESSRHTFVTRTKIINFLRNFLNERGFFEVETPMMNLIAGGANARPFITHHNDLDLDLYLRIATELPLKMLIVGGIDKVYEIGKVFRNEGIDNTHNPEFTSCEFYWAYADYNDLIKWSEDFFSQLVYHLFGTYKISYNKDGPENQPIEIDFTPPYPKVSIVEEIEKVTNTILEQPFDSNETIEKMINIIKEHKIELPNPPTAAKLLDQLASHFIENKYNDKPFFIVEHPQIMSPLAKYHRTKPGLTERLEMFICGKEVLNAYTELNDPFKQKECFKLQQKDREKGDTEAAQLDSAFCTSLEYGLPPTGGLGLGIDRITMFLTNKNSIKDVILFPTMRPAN
UniProt P9WFT3, whole entry: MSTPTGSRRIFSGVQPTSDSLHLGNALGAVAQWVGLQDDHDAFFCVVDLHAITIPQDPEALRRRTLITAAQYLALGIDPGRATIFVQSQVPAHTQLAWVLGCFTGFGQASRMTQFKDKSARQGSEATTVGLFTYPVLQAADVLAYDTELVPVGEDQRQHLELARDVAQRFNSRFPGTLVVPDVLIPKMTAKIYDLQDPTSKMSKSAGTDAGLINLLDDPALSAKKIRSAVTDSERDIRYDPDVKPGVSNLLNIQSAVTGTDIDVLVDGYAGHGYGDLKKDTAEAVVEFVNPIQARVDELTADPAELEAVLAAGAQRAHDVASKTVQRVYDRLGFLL

The filed quantity is “Percent Effect” (%).
The record does not define 0% and 100%; most values in the screen are far below 50% and negative numbers occur (in some assays of this library far below -100).
The compounds are a random part of those screened.
Two or more numbers in one place are separate tests of the same structure; such repeats can differ widely.
A dash means the value is not listed here; it may have been measured.

SMILES,A,B,C,D,E,F
O=c1c2cnc(N3CCCCC3)nc2ccn1-c1ccccc1,2.732,-22.02,-0.6729,13.04,-1.948,0.804
Cc1cc(C[S+]([O-])Cc2ccccc2F)on1 (stereo unspecified),0.8929,-19.06,6.415,3.131,4.227,-1.497
CCC(C)[C@H](N)c1nnc(SCC(=O)Nc2cc(C)ccc2C)o1 (stereo partly specified),6.098,-2.883,2.532,-,2.956,-1.159
Cc1nc(CN2C[C@@H]3CN(C(=O)c4ccoc4C)C[C@@H]3C2=O)cs1,0,-6.29,-1.269,-,-3.413,-7.49
CCCN(Cc1cccnc1)C(=O)C1CCS(=O)(=O)CC1,1.622,-22.82,3.419,-21.19,1.199,-0.2141
CCc1c(O)nc2nc(N3CCOCC3)nn2c1C,-1.327,-31.53,-17.29,-6.664,1.716,-5.453
Cc1cc2c(cc1NC(=O)NCC(C)C)OCO2,2.591,1.858,3.479,-10.49,5.301,4.917
COc1cccc(CN(C)C(=O)CN2CCN(c3nccn3C)CC2)c1,4.564,-11.96,8.929,13.82,3.56,1.776
CC(C)c1nc(CN(C)Cc2ccc(F)cc2)cs1,2.424,-59.43,3.321,18.09,4.569,2.101
N#CCCCOc1cccnc1NC(=O)Cc1ccccc1F,1.339,-11.84,3.827,6.137,5.119,6.238
CCC(C)c1noc(C2CCN(C(=O)Cn3nc(C)cc3C)CC2)n1 (stereo unspecified),0,6.339,-5.312,6.103,2.244,-1.813
O=C(O)C(F)(F)F.[H][C@]12CCC[C@@H](CNc3ncccn3)[C@@]1([H])CN(Cc1csnn1)C2,-,-,-,15.61,-,-
CN(C)CC(=O)N1CCc2ncnc(-c3ccsc3)c2CC1,5.376,-14.82,0.6342,-9.944 and -4.57,2.773,-4.863
Cc1csc(C2CCCN(C(=O)Cn3ccccc3=O)C2)n1 (stereo unspecified),5.263,-3.571,2.806,8.302,-0.6195,-1.476
CCc1ccc(O)c(C(=O)N2CCCN(CC(=O)N(CC)CC)CC2)c1,8.152,-7.556,-3.306,12.78,-1.98,-3.191
Cc1ccc(CN2CCc3ncnc(-c4ccncc4)c3CC2)o1,2.804,-10.62,3.704,-,-0.1158,-2.813
COCCN(Cc1cnn(C)c1)C(=O)C1CCN(C2CCCCC2)CC1,5.128,-8.071,-5.511,-0.7378,3.211,1.755
CN(Cc1nc(Cc2cccc(F)c2)no1)C1CCOCC1,2.488,-12.99,-1.975,4.918,1.909,-1.723
CN1CCN(Cc2ccc(Cl)cc2)CC1C(=O)O (stereo unspecified),10,-7.556,6.777,-18.27,5.576,4.552
Cc1cc(C)n(C2CN(c3ncnc4c3CCC4)C2)n1,9.278,-11.21,5.67 and 21.46,14.15,5.923,3.695
Cc1cc(C2CCCN(C(=O)Cc3csc(C(C)C)n3)C2)n[nH]1 (stereo unspecified),4.373,-5.614,9.091,16.45,0.752,-0.6773
COCCN1C(=O)CO[C@H]2CN(Cc3ccccc3Cl)C[C@@H]21,1.111,-,2.906,-,3.695,-
CCS(=O)(=O)c1ccc2oc([C@H]3CCN(Cc4ccccn4)C3)nc2c1,2.488,-34.5,15.87 and 22.59,19.28,11.79,0.2288
CN(CC(=O)Nc1ccc(Br)cn1)C(=O)Cc1ccc(O)cc1,-0.3774,-17.19,5.346,36.59,3.051,-1.436
COCc1cccc(NS(=O)(=O)c2cc(C(=O)O)cs2)c1,0.7634,-6.081,0.7772,36.6,0.5861,6.013
O=C(NCCNC(=O)C1CCN(CC(F)(F)F)CC1)c1ccoc1,4.433,-24.72,2.258,34.14,8.637,-5.576
[H][C@@]12CCN(Cc3cnn(C)c3)C[C@@]1([H])O[C@H](c1nc(C)cs1)C2,-,-,-,22.57,-,-
[H][C@]12CN(C(=O)c3ccc4c(c3)OCO4)CCN1C(=O)N(CCOC)C2,-,-,-,-97.3,-,-
O=C1[C@H]2CN(C(=O)[C@H]3CCCO3)C[C@H]2CN1CC1CC1,8.738,-24.46,1.931,-,2.207,-3.052
CCC(=O)NC(c1cccnc1)c1cc(C)ccc1C (stereo unspecified),6.931,-9.012,-3.753,36.69,6.389,-0.6221
CC1CCN(C(=O)CSc2nc3c(cnn3CCO)c(=O)[nH]2)CC1,7.538,-3.849,0.361,16.18,0.8489,-1.761
Cc1cccc(CN2CC3(CCN(Cc4ccco4)CC3)OCC2=O)n1.O=C(O)C(F)(F)F.O=C(O)C(F)(F)F,-,-,-,-9.266,-,-
COCCn1cnnc1CCNc1cc(C)nc2ccnn12,2.128,-9.443,1.434,3.162,5.989,1.444
Cc1ccccc1CNC(=O)CN1CCN(Cc2nccn2C)CC1,2.256,-7.842,4.626,28.34,-0.3853,4.93
CC(Cn1cccn1)NCc1csc(-c2ccccc2)n1 (stereo unspecified),3.933,-40.08,7.042,-6.797,-0.6888,-22.07
NC(=O)c1noc(Cn2ccc3ccccc3c2=O)n1,3.03,-12.99,-3.836,28.16,3.85,-0.6299
COc1cccc2cc(CNC(C)(C)C(=O)N3CCC(O)CC3)oc12,3.008,-42.16,1.799,17.15,10.44,-0.07868
[H][C@@]12CS(=O)(=O)C[C@]1([H])N(C(=O)Cc1cccs1)CCN2C(=O)COC,-,-,-,-19.73,-,-
COc1cc2c(cc1C(=O)N1CC(c3ccncc3)C1)CCC2,9.524,-12.74,2.206,8.427,-2.434,-4.444
CN(C)C[C@@H]1C[C@@H]2CN(Cc3nccn3C)CC[C@@H]2N1CC1CC1,4.523,-,-2.599,-,2.125,-
Cc1nc(C2CCCN(C(=O)COCCc3ccccc3)C2)no1 (stereo unspecified),3.39,-14.26,3.916,23.85,1.348,-8.522
CC(C)Nc1cccc(C(=O)NCC(O)c2cccc(F)c2)c1 (stereo unspecified),3.061,-9.752,5.159,8.412,4.116,-9.235
COCCN1CC[C@H](O)[C@@H]1Cc1ccccc1,1.639,-36.06,-0.6729,-,7.335,-4.422
CS(=O)(=O)N1CCOC2(CCCN(c3cnccn3)C2)C1.O=C(O)C(F)(F)F (stereo unspecified),-,-,-,9.363,-,-
CN1CCC(N2CCOC[C@H]2c2nc(-c3ccncc3)c[nH]2)CC1,1.087,-9.832,4.194,-11.1,1.034,-3.566
COc1cc(CSc2nnc(N)n2C2CC2)ccc1SC,9.914,-46.29,0.8872,3.668,2.826,4.839
COc1ccc(-c2noc(C(=O)NCCN3CCCCC3)n2)cc1OC,-9.29,6.151,4.441,28.15,-2.764,9.447
CCN1CCCC(C)(C(=O)NCc2nccn2Cc2ccccc2)C1 (stereo unspecified),6,-9.439,-2.149,-3.141,0.4322,2.349
COc1ccc(-c2cn[nH]c2)cc1CNC1CCCC1,8.38,-14.55,1.613,13.74,7.386,-1.975
Cc1nn(C)c2c(N(C)Cc3ccco3)nc(C3CC3)nc12,14.85,3.312,-0.2427,10.49,1.053,3.456
COCCC(=O)NC[C@H]1CC[C@H](C(c2ccccn2)N(C)C)CC1 (stereo partly specified),2.326,1.064,-1.84,36.28,-0.6151,-6.223
Cc1cnn(CCNCc2cccc(C#N)c2)c1,5.539,-70.81,5.106,7.688,1.838,-0.000004
Cn1c(=O)oc2ccc(NC(=O)N3CCSCC3)cc21,7.792,-19.61,-,-0.1436,0.8315,-1.342
Cc1cc(CN(C)CCC(O)c2ccccc2)nn1C (stereo unspecified),-0.5025,5.112,2.533,4.189,3.812,4.565

The first 5 entries again:

For O=c1c2cnc(N3CCCCC3)nc2ccn1-c1ccccc1 the result was A: 2.732%; B: -22.02%; C: -0.6729%; D: 13.04%; E: -1.948%; F: 0.804%.
For Cc1cc(C[S+]([O-])Cc2ccccc2F)on1 (stereo unspecified) the result was A: 0.8929%; B: -19.06%; C: 6.415%; D: 3.131%; E: 4.227%; F: -1.497%.
For CCC(C)[C@H](N)c1nnc(SCC(=O)Nc2cc(C)ccc2C)o1 (stereo partly specified) the result was A: 6.098%; B: -2.883%; C: 2.532%; E: 2.956%; F: -1.159%.
For Cc1nc(CN2C[C@@H]3CN(C(=O)c4ccoc4C)C[C@@H]3C2=O)cs1 the result was A: 0%; B: -6.29%; C: -1.269%; E: -3.413%; F: -7.49%.
For CCCN(Cc1cccnc1)C(=O)C1CCS(=O)(=O)CC1 the result was A: 1.622%; B: -22.82%; C: 3.419%; D: -21.19%; E: 1.199%; F: -0.2141%.

Source: ChEMBL document CHEMBL3988442, “University of Dundee, Small-Polar-MMV Screening Library” (2021).